Experimental data taken from PMC7819943, “Rice protein-binding microarrays: a tool to detect cis-acting elements near promoter regions in rice”.
Some of the results follow.

What follows are sequences tested against T1, OsSMF1 (Oryza sativa, UniProt Q6ZLB0 1-436) (assay: protein-binding microarray (RPBM); PBS, 2% BSA, 51.3 ng/ul salmon testes DNA, 50 uM zinc acetate, 200 nM TF, 25 C, 1 h; high values mean tight binding). Details: protein: recombinant; tags: N-terminal polyhistidine and DsRed monomer fusion (pET32a); chain copies: 2; label: CyDye5-dUTP incorporated in the synthesized complementary strand; 3' TTTTT single-stranded linker to array surface; dsDNA, one strand shown.
T1 sequence: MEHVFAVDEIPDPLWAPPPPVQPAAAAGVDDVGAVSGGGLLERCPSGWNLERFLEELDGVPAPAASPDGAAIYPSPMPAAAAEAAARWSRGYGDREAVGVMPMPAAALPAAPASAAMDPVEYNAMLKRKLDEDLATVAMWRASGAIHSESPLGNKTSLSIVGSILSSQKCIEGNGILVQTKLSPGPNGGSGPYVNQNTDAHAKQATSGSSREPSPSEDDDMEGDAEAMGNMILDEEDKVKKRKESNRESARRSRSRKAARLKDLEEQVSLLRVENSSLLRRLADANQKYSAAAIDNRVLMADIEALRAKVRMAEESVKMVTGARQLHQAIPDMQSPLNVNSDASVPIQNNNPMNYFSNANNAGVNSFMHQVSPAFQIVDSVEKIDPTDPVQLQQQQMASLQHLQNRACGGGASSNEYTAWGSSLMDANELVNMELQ
Procedure, shortened: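 Transcription factors were made in E. coli BL21-CodonPlus as N-terminal fusions to a polyhistidine tag and DsRed, then purified on Ni–NTA. After primer extension with Cy5-dUTP and blocking with 2% BSA, a custom Agilent array was exposed for 1 h at 25 °C to 200 nM protein in PBS, 2% BSA, salmon testes DNA and 50 µM zinc acetate. Washed arrays were scanned on an Axon 4000B, and the binding signal is per-feature fluorescence intensity in arbitrary units.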

Sequence | binding signal
TCGAACACCGCCAGGGCCTTCTCGGACACGCTCTTGTCAGCGGAGTCACCTAGTGCAG | 3850 fluorescence intensity (a.u.)
CGACGGAGGTCGGATCGAAGGAGGGGAGCGGTGGTGACGACGGAGTCACCTAGTGCAG | 3250 fluorescence intensity (a.u.)
ATATATGTTTAGATTTGTAGGCCTATGATACGTCAAATTTCGGAGTCACCTAGTGCAG | 3180 fluorescence intensity (a.u.)
TCTCCCACGATTCGCCTTACATGTTTATTACACGCCATGACGGAGTCACCTAGTGCAG | 3670 fluorescence intensity (a.u.)
ACCACGACCACCACAACACCACCACCTCTTCTCCTAGTCACGGAGTCACCTAGTGCAG | 3570 fluorescence intensity (a.u.)
TGGTTTTGCTAGTTGTGCCCATGGCGATTAAGGACCGGTTCGGAGTCACCTAGTGCAG | 3380 fluorescence intensity (a.u.)
TGGACGTCCTCAGAAAACCATGACGACTCAATGGCGGGAACGGAGTCACCTAGTGCAG | 3200 fluorescence intensity (a.u.)
CTTGTACTGATGTGGAGGAGGAAGGTGTTGTTGCTTGTATCGGAGTCACCTAGTGCAG | 4160 fluorescence intensity (a.u.)
CAAACGATCCTAAACTGCCACCTAACGCTTCCTACGAACACGGAGTCACCTAGTGCAG | 3980 fluorescence intensity (a.u.)
CCCAGATCCCAAGGGGCACACGTGGCAGCACGGGGCGTCACGGAGTCACCTAGTGCAG | 9760 fluorescence intensity (a.u.)
TACGTGGGTGCTGCATGGCTTAGTGAGTAGTGGTTGGCAGCGGAGTCACCTAGTGCAG | 3480 fluorescence intensity (a.u.)
AAATGTAAATATTAATGAATCGTTTGTTTACGATGAATAACGGAGTCACCTAGTGCAG | 6270 fluorescence intensity (a.u.)
GTTTGCCATCCACGATATCCGTCGATTCGCGTCACGTCAGCGGAGTCACCTAGTGCAG | 8770 fluorescence intensity (a.u.)
AGCTCGTCGTTGCCCACCCGTGCTCGCCCGTCGTGTGGACCGGAGTCACCTAGTGCAG | 3770 fluorescence intensity (a.u.)
GTCGATCACCTGGGTCCACACGTCAGTGTCTAATCCAGAACGGAGTCACCTAGTGCAG | 5120 fluorescence intensity (a.u.)
TCAAATGTTACTACACGTAGTACGCTAGCACGTCTACAGGCGGAGTCACCTAGTGCAG | 3870 fluorescence intensity (a.u.)
CCAAATATTTGACGTGACAGCATGAAAATTTTCGTTTTGGCGGAGTCACCTAGTGCAG | 3980 fluorescence intensity (a.u.)
AAAATTGACTGTACAATGACATTTTGTAGAACTTGCACTCCGGAGTCACCTAGTGCAG | 3540 fluorescence intensity (a.u.)
CGGCACGCGCGAAACGAGCAGTTTCTATCAGCACGTGATGCGGAGTCACCTAGTGCAG | 21500 fluorescence intensity (a.u.)
GGATGCATGCATGCTGATGATGTCAGGCTGATACGTGCGTCGGAGTCACCTAGTGCAG | 7340 fluorescence intensity (a.u.)
AGAGTACATTTTACGGATGCGTAATCCTAAGTAAGCACATCGGAGTCACCTAGTGCAG | 3340 fluorescence intensity (a.u.)

Retrieved one by one from above (2):
Sequence | binding signal
AGCTCGTCGTTGCCCACCCGTGCTCGCCCGTCGTGTGGACCGGAGTCACCTAGTGCAG | 3770 fluorescence intensity (a.u.)
TACGTGGGTGCTGCATGGCTTAGTGAGTAGTGGTTGGCAGCGGAGTCACCTAGTGCAG | 3480 fluorescence intensity (a.u.)

(further entries)

Sequence | binding signal
GAAGTCTCTTGTCGTCACGCTTTTGGAGCACTTTGGACGCCGGAGTCACCTAGTGCAG | 4380 fluorescence intensity (a.u.)
TTGCTGCAATTCCACATGGAGAAACGAATCTTCATCAGTTCGGAGTCACCTAGTGCAG | 24300 fluorescence intensity (a.u.)
AGCCGCTCCCCGAAGCTGTCGCTGGCGTAATGATGCGAGCCGGAGTCACCTAGTGCAG | 3420 fluorescence intensity (a.u.)
TAAACTTTTGACCTTGTCAGTGTCAGATGACATAATGGCACGGAGTCACCTAGTGCAG | 3960 fluorescence intensity (a.u.)
CGATCCTTATCCTATCACCAGCCGCCCACCTATAAATGGCCGGAGTCACCTAGTGCAG | 22900 fluorescence intensity (a.u.)
GAGGGAGAGGTGGCCGCGTCACCCTCGGGCCCGACTCCCCCGGAGTCACCTAGTGCAG | 11200 fluorescence intensity (a.u.)
GTTCACGGCCACCACTATCGTGTTGTCTTTGTGTCGTTGTCGGAGTCACCTAGTGCAG | 3310 fluorescence intensity (a.u.)
CATAGCCCTCTGTCGCGGGCGCCGCTGTCCACCGTCCTCCCGGAGTCACCTAGTGCAG | 43900 fluorescence intensity (a.u.)
GACGGCGGACACCTCAGCCGATGCAGAGATCTCCGCACGACGGAGTCACCTAGTGCAG | 3240 fluorescence intensity (a.u.)
TTACTTAATTACTATAGATAATTAGTTGATTAGTGTTACTCGGAGTCACCTAGTGCAG | 3500 fluorescence intensity (a.u.)
GCGAAAGGCTCTAAAATCGATGATCATCCTGGTCACGTGGCGGAGTCACCTAGTGCAG | 3740 fluorescence intensity (a.u.)
ATAGTGGTCCAAAGCTGACGTGGCCAAGACTGGCCCACATCGGAGTCACCTAGTGCAG | 14700 fluorescence intensity (a.u.)
TCTCAGGACCGAGTCAGCAATGACGCGGTTTGTACTACTACGGAGTCACCTAGTGCAG | 9520 fluorescence intensity (a.u.)
TGTCCCCGAACCGGATCTGCCCGATGCTCGCCGTCAGCATCGGAGTCACCTAGTGCAG | 4300 fluorescence intensity (a.u.)
TGGCTGTTCTTATTTTGGGATGGAGGTAGTATTGTTTTCGCGGAGTCACCTAGTGCAG | 4070 fluorescence intensity (a.u.)
TTATAAGGTGGGACGAAAATAACCCCGTGTTTCCGTGACGCGGAGTCACCTAGTGCAG | 3800 fluorescence intensity (a.u.)
CCTTACGCGAGAGAGAGAGAGAGAGAGAGAGAGAGCGAGCCGGAGTCACCTAGTGCAG | 27800 fluorescence intensity (a.u.)
GCCTTCGCCGCCTCTGCATCCTTCTCCGGCGGCGCCAGGTCGGAGTCACCTAGTGCAG | 3160 fluorescence intensity (a.u.)
TTTTCCAATTAAGAAAATATGCTGACATAGATATATTGTACGGAGTCACCTAGTGCAG | 4190 fluorescence intensity (a.u.)
AGTGGCCACCCCTTGCAACGTCAGATCATTTCAACTATTACGGAGTCACCTAGTGCAG | 4940 fluorescence intensity (a.u.)
CCGTCCACGCGCGATTCCTCCCCTCCACCCGCGCCATCTCCGGAGTCACCTAGTGCAG | 27700 fluorescence intensity (a.u.)
